The target in test [1] is mouse insulin receptor substrate IRS1 (mouse) (UniProt P35569). The test is described as follows: co-immunoprecipitation of IRS1 from HEK293T cells co-expressing both, Western Blot. In general terms: A western blot detects proteins with antibodies after separation by electrophoresis.
Test [2] has the same target. The test is described as follows: co-immunoprecipitation from HEK293T cells: IP a-IRS1, Western blot for MG53.
Test [3] concerns the target rat insulin receptor substrate IRS1 (rat) (UniProt P35570). The test can be described thus: SPR, Rat IRS1 immobilized (500 RU), MG53 in the mobile phase [upper panel]. Background: SPR reads the build-up and loss of mass on a sensor chip optically.

The chains behind the UniProt entries cited, without tags or fusion partners.
UniProt P35569: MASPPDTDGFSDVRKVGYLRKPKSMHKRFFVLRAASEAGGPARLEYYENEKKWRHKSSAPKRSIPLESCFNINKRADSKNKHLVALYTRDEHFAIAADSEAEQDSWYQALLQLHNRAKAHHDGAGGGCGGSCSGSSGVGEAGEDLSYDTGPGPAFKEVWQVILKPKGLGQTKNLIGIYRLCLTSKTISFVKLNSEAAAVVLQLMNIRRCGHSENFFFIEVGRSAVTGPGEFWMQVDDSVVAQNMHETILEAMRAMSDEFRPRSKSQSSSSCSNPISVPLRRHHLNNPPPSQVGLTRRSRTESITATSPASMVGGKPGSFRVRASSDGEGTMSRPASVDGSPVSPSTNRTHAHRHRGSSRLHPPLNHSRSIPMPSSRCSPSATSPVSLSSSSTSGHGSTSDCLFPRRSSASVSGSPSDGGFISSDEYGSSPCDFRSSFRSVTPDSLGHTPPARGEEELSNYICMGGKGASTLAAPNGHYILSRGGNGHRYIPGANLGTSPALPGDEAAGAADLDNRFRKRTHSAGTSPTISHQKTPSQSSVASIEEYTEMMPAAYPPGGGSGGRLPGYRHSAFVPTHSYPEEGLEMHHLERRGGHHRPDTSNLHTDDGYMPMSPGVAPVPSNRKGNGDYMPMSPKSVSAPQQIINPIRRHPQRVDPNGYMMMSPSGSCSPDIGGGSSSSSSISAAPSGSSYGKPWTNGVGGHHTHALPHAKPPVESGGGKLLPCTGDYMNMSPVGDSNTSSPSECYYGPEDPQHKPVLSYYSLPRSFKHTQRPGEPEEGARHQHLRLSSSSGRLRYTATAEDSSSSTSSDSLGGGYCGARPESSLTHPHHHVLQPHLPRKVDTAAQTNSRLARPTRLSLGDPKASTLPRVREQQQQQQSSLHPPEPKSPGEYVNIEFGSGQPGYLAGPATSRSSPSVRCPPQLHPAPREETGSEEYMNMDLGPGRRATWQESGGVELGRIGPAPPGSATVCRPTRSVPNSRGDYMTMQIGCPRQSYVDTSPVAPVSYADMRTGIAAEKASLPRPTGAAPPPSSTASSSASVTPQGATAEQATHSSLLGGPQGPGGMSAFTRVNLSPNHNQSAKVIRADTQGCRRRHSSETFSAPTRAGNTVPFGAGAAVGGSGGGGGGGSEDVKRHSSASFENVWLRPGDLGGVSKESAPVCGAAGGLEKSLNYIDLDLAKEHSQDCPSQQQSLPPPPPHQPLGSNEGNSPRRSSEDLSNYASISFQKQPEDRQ
UniProt P35570: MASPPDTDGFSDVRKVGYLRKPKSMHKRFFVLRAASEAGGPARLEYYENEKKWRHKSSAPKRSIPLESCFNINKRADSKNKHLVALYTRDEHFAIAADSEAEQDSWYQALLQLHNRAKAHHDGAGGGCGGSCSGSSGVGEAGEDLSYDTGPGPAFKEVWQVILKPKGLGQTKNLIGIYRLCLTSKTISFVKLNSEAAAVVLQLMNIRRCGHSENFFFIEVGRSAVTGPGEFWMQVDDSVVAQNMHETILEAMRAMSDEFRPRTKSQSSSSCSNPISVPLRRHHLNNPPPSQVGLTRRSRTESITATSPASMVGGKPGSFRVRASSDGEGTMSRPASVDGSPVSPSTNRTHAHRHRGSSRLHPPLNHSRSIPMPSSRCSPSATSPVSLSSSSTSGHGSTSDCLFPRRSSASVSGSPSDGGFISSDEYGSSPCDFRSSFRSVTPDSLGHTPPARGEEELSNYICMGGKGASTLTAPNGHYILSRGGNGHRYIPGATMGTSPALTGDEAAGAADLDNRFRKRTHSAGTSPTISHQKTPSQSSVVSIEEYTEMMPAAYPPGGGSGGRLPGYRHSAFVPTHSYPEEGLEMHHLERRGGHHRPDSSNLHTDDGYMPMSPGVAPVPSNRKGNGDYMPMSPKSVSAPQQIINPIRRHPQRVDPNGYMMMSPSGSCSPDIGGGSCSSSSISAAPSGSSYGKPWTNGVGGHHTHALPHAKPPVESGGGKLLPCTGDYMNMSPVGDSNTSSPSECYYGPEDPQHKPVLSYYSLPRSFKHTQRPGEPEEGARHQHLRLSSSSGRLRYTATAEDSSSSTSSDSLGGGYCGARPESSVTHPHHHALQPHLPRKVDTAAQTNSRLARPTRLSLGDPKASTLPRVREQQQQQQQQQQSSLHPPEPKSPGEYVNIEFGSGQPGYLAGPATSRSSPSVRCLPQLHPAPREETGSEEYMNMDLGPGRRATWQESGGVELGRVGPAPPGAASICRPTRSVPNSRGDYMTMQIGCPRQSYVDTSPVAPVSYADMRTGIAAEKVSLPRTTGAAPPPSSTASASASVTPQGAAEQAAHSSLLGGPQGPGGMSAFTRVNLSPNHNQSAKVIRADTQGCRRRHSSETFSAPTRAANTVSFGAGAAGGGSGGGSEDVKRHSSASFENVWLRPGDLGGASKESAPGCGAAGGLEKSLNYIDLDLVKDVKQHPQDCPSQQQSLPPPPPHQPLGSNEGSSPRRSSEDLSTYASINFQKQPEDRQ

These are yes or no findings as the source states them, for the method shown. For some of these results: In cells and extracts the contact can be indirect. Some entries that bind do so weakly or less than the wild type.

B1: mouse wild-type MG53 (enzyme)
chain: MSAAPGLLRQELSCPLCLQLFDAPVTAECGHSFCRACLIRVAGEPAADGTVACPCCQAPTRPQALSTNLQLSRLVEGLAQVPQGHCEEHLDPLSIYCEQDRTLVCGVCASLGSHRGHRLLPAAEAQARLKTQLPQQKMQLQEACMRKEKTVAVLEHQLVEVEETVRQFRGAVGEQLGKMRMFLAALESSLDREAERVRGDAGVALRRELSSLNSYLEQLRQMEKVLEEVADKPQTEFLMKFCLVTSRLQKILSESPPPARLDIQLPVISDDFKFQVWKKMFRALMPALEELTFDPSSAHPSLVVSSSGRRVECSDQKAPPAGEDTRQFDKAVAVVAQQLLSQGEHYWEVEVGDKPRWALGVMAADASRRGRLHAVPSQGLWLLGLRDGKILEAHVEAKEPRALRTPERPPARIGLYLSFADGVLAFYDASNPDVLTPIFSFHERLPGPVYPIFDVCWHDKGKNAQPLLLVGPEQEQA
B1: the binding result in test [1], in test [2] and in test [3] was “binds” throughout.

B2: mouse MG53 S255A mutant (enzyme)
chain: MSAAPGLLRQELSCPLCLQLFDAPVTAECGHSFCRACLIRVAGEPAADGTVACPCCQAPTRPQALSTNLQLSRLVEGLAQVPQGHCEEHLDPLSIYCEQDRTLVCGVCASLGSHRGHRLLPAAEAQARLKTQLPQQKMQLQEACMRKEKTVAVLEHQLVEVEETVRQFRGAVGEQLGKMRMFLAALESSLDREAERVRGDAGVALRRELSSLNSYLEQLRQMEKVLEEVADKPQTEFLMKFCLVTSRLQKILSEAPPPARLDIQLPVISDDFKFQVWKKMFRALMPALEELTFDPSSAHPSLVVSSSGRRVECSDQKAPPAGEDTRQFDKAVAVVAQQLLSQGEHYWEVEVGDKPRWALGVMAADASRRGRLHAVPSQGLWLLGLRDGKILEAHVEAKEPRALRTPERPPARIGLYLSFADGVLAFYDASNPDVLTPIFSFHERLPGPVYPIFDVCWHDKGKNAQPLLLVGPEQEQA
As to B2, in test [2], the binding result is reported as “no binding”.
